PubChem BioAssay AID686943, Drosophila RNAi Screening Center, 2013

Aim: 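Knockdowns that increase or decrease active ERK after insulin receptor stimulation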 (primary screen)
Cell system: Drosophila S2R+ haemocyte-like cells expressing YFP-tagged ERK (Rolled)
Reagent: long dsRNA against Drosophila genes
Challenge: insulin stimulation versus unstimulated cells; dose and duration not given
Measurement: 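Per-plate z-scores of phospho-ERK immunostaining normalised to YFP-tagged ERK, measured with and without insulin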
Direction: replicate 1, z-score of dpERK with insulin and replicate 2, z-score of dpERK with insulin: higher = more active ERK per ERK-YFP after insulin
The deposit covers about 23,000 reagents; this is an unselected part of those with a known target gene and a result. 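Extra replicates exist only for a retested subset of genes; insulin dose and duration not given; both raised and lowered dpERK matter.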 A plus sign joins genes that one reagent is predicted to hit. Further read-outs or replicates are left out here. Not stated in the record: the amount of reagent, the time to read-out.

Gene | amplicon | replicate 1, z-score of dpERK with insulin | replicate 2, z-score of dpERK with insulin
tilB | DRSC20634 | -0.35 | 0.04
Ect3 | DRSC15462 | 1.35 | 3.75
Desi | DRSC14909 | 0.2 | -0.09
CG13064 | DRSC09947 | 0.46 | -0.04
CG9471 | DRSC16499 | 0.4 | 0.28
Ugt37C1 | DRSC07416 | -0.14 | -0.4
CG6432 | DRSC16039 | 0.28 | -0.06
CG17493 | DRSC03798 | -0.8 | 0.08
CG9777 | DRSC20208 | 0.1 | 0.47
CG40191 | DRSC21041 | -0.13 | 0.08
CG13078 | DRSC02182 | 1.28 | 0.26
CG14118 | DRSC10122 | -0.24 | 0.43
IleRS-m | DRSC10506 | 0.87 | 0.47
CG5171 | DRSC02823 | 0.9 | 1.12
Drip | DRSC07405 | 0.24 | -0.07
CG9416 | DRSC07339 | 0.51 | 0.83
Vps16B | DRSC15304 | -0.38 | -1.48
Rme-8 | DRSC07054 | 0.4 | 0.8
Rhp | DRSC20279 | -0.27 | -0.28
CG17207 | DRSC15198 | 0 | 0.81
Idh3a | DRSC19446 | -0.01 | 0.13
CG12637 | DRSC17845 | -0.62 | -0.2
RhoGAP1A | DRSC20649 | -0.19 | 0.04
RhoGAP1A | DRSC20651 | -0.82 | -0.52
ABCB7 | DRSC08603 | -0.6 | 0.45
Actbeta | DRSC17185 | 0.52 | 0.18
Actbeta | DRSC17217 | 0.1 | 1.41
CG4676 | DRSC06879 | 0.19 | 1.36
CG18268 + CG3014 | DRSC15319 | -0.87 | -0.29
Cap-G | DRSC06652 | 1.35 | 0.17
Cap-G | DRSC06653 | 0.49 | 0.65
Cap-G | DRSC21805 | 0.41 | -0.64
Pcf11 | DRSC05983 | 0.38 | -1.71
Syn1 + CG7370 | DRSC22768 | -0.56 | 0.62
yrt | DRSC16559 | -0.83 | -0.07
CG32017 | DRSC17183 | -0.33 | 0.01
Timp | DRSC17082 | 1.12 | 0.6
TfIIFbeta | DRSC16884 | 0.54 | 0.44
TfIIFbeta | DRSC21447 | 1.37 | 0.34
Pex2 | DRSC10770 | 0.26 | -0.41
phtm | DRSC20237 | 3.37 | 1.65
NT5E-2 | DRSC06893 | 0.06 | 0.63
Ugt49B2 | DRSC16049 | -0.35 | 0.17
AGO2 | DRSC09999 | -7.43 | -3.79
AGO2 | DRSC10847 | -4.61 | -4.75
bap | DRSC16908 | 0.52 | 0.19
CG13081 | DRSC02185 | 1.13 | 1.58
mRpL46 | DRSC08391 | -0.84 | -1.8
CG4882 | DRSC04495 | -0.07 | 0.3
Sulf1 | DRSC13150 | 0.34 | -0.09
Sulf1 | DRSC16874 | -0.65 | 0.25
mxc | DRSC17819 | -1.42 | -0.79
CG10211 | DRSC02027 | -1.75 | -1.47
CG12974 | DRSC11684 | -0.24 | 0.12
CG34135 + Nasp + CG11768 | DRSC14377 | 1.4 | 1.08
CG34135 + Nasp + CG11768 | DRSC16397 | -0.78 | -0.78
CG12470 | DRSC18620 | 0.29 | -0.13

Targets above whose target name begins with A or a (5):
Gene | amplicon | replicate 1, z-score of dpERK with insulin | replicate 2, z-score of dpERK with insulin
ABCB7 | DRSC08603 | -0.6 | 0.45
Actbeta | DRSC17185 | 0.52 | 0.18
Actbeta | DRSC17217 | 0.1 | 1.41
AGO2 | DRSC09999 | -7.43 | -3.79
AGO2 | DRSC10847 | -4.61 | -4.75
